PubChem BioAssay AID504808, Drosophila RNAi Screening Center | 2011

Aim: 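Genes whose loss lifts activity of an E2F-responsive reporter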 (primary screen)
System: Drosophila S2 cells
Knock-down reagent: long dsRNA against Drosophila genes
Measured: 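Dual luciferase plate measurements; E2F-specific signal taken as firefly over Renilla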
Reading the numbers: E2F firefly: higher = more E2F reporter activity; Renilla normaliser: higher = more normaliser reporter signal
Hit rule: 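a knock-down counted as active when the firefly/Renilla E2F signal rose above 50%, a threshold chosen arbitrarily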
The screen tested about 21,000 reagents; this is an unselected part of those with a known target gene and a result. Over the whole deposit, 18 (0.084%) got an active call. 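Raw counts without plate normalisation, one of two replicates; the ratio scores behind the calls were not deposited.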 Names joined by + are all predicted targets of the reagent. The record does not give: the amount of reagent, the time to read-out.

no.	Target gene	dsRNA	E2F firefly, rep 1	Renilla normaliser, rep 1	Call
1	Nmd3 (GeneID 31195)	DRSC18687	1896	896	inactive
2	Mocs2A + Mocs2B	DRSC13697	58913	3539	inactive
3	Mocs2A + Mocs2B	DRSC14219	1.13e5	5992	inactive
4	CG14050 (GeneID 31218)	DRSC18594	1.03e5	4986	inactive
5	CG31445 (GeneID 326140)	DRSC14443	2033	832	inactive
6	Tim17b2 (GeneID 44381)	DRSC03457	1.07e5	4628	inactive
7	CG14110 (GeneID 39500)	DRSC10113	1.26e5	6696	inactive
8	SCCRO4 (GeneID 40231)	DRSC10671	1.34e5	6210	inactive
9	Rbsn-5 (GeneID 34110)	DRSC03094	84884	3732	inactive
10	Cpr5C (GeneID 31510)	DRSC18340	89082	5132	inactive
11	caz (GeneID 32587)	DRSC20317	67578	764	inactive
12	Adgf-A (GeneID 39976)	DRSC10566	66719	3592	inactive
13	CG4872 (GeneID 32676)	DRSC19921	1.63e5	6488	inactive
14	CadN (GeneID 35070)	DRSC03286	89224	3519	inactive
15	ATPsynepsilonL (GeneID 326144)	DRSC14548	96831	5880	inactive
16	CAH1 + Adat1	DRSC02009	76861	3282	inactive
17	sbb (GeneID 44027)	DRSC05723	1.65e5	6408	inactive
18	sbb (GeneID 44027)	DRSC07676	1.67e5	5888	inactive
19	ATPsynC (GeneID 43693)	DRSC15236	1716	1064	inactive
20	Snap24 (GeneID 41193)	DRSC16864	1.39e5	6783	inactive
21	Moe (GeneID 31816)	DRSC18684	8038	736	inactive
22	Gr85a (GeneID 117475)	DRSC12760	78509	4681	inactive
23	Ppt1 (GeneID 31805)	DRSC17806	1.25e5	5839	inactive
24	mir-210 (retired record) (GeneID 3771928)	DRSC19230	93050	2799	inactive
25	Asator (GeneID 43794)	DRSC17136	67147	4448	inactive
26	CG14958 (GeneID 38387)	DRSC08417	85016	3615	inactive
27	CG6333 (GeneID 39953)	DRSC10626	1.93e5	10246	inactive
28	nxf4 (GeneID 40884)	DRSC12548	1.26e5	5987	inactive
29	CG15296 (GeneID 31986)	DRSC17983	1.45e5	5906	inactive
30	Kpc1 (GeneID 41826)	DRSC16107	79206	3405	inactive
31	Lrr47 (GeneID 34449)	DRSC03365	64218	3449	inactive
32	CG1309 (GeneID 38519)	DRSC08302	65627	3278	inactive
33	CG17440 (GeneID 31879)	DRSC18126	1.18e5	4728	inactive
34	cora (GeneID 37205)	DRSC07597	1.52e5	5563	inactive

Laid out differently: entries from further up.
Target gene,dsRNA,"E2F firefly, rep 1","Renilla normaliser, rep 1",Call
ATPsynepsilonL (GeneID 326144),DRSC14548,96831,5880,inactive
CAH1 + Adat1,DRSC02009,76861,3282,inactive
sbb (GeneID 44027),DRSC05723,1.65e5,6408,inactive
sbb (GeneID 44027),DRSC07676,1.67e5,5888,inactive
